Patent EP0532706B1, “REDUCTION OF CARDIOVASCULAR VESSEL OCCLUSIONS WITH ASCORBATE AND LIPOPROTEIN (a) BINDING INHIBITORS” (priority 1990, dated 1991)
At least one compound was matched to its structure with a doubt left.

Columns and labels:
[1] = tested on: atherosclerotic lesions; experiment: Example 1: atherosclerotic lesions of the aorta by planimetry under hypoascorbic diet; assay type: in vivo, guinea pig; conditions: vitamin C deficient animal, 3 weeks
[2] = tested on: atherosclerotic lesions; experiment: Example 2: area of aortic atherosclerotic lesions in guinea pig groups; assay type: in vivo; conditions: guinea pigs receiving a sufficient amount of ascorbate (control, 40 mg/kg BW/d)
Text: At necropsy the animals were anesthetized with metophase and exsanguinated. The aorta, heart and various other organs were taken for biochemical and histological analysis. The aorta was excised, the adventitial fat carefully removed, and the vessel was opened longitudinally. Subsequently the aorta was placed on a dark metric paper and a color slide was taken. The picture was projected and thereby magnified by an approximate factor of 10. The circumference of the ascending aorta, the aortic arch and thoracic aorta, as well as the atherosclerotic lesions in this area, were marked and measured with a digitalized planimetry system. The degree of atherosclerosis was expressed by the ratio of plaque area in relation to the total aortic area defined.
To confirm the data obtained in Example 1, a second guinea pig experiment was conducted, using 33 male animals with a mean weight of 550 g and an approximate age of 5 months. One group of 8 animals served as a control and received 40 mg ascorbate/kg BW/d (group A). To induce hypoascorbemia 16 animals were fed 2 mg ascorbate/kg BW/d (group B). Group A and half of the animals of group B (progression sub-group) were sacrificed after 5 weeks as described above. […]

[3] = tested on: Lp(a); experiment: Example 1: Lp(a) in guinea pig plasma by SDS-PAGE and Western blot under hypoascorbic diet; assay type: in vivo; conditions: Vitamin C deficiency in the diet; after 10 and 20 days of a hypoascorbic diet

`O=C1O[C@H]([C@@H](O)CO)C(O)=C1O` [ascorbate] was tested, and the “atherosclerotic lesions in the ascending aorta and the arch” value [1] was “pronounced lesions”, the “state of the aortas (plaque)” value [2] was “essentially plaque free” and the “Lp(a) in the plasma (immunoblot)” value [3] was “increase of Lp(a)”.
